Experimental data published in PubChem BioAssay AID200 (DTP/NCI, 2004).
The list does not hold the whole screen: it gathers tests that were run many times, whatever their T/C, doses with no T/C, and many T/C values between a quarter and a half above the control. Other doses and runs of a compound stand elsewhere. T/C gives the treated animals as a percentage of the vehicle group. Some doses have a count of surviving animals in place of a T/C: the source holds a T/C of zero for them, seemingly a mark for toxic or unscored doses. Some survivor counts are full or nearly so, which does not show that the dose was tolerated: survival well below the control is almost never listed, so the zero probably covers shortened survival too. Survivors were counted at the toxicity check, usually on the fifth day, unless a day is given; later deaths do not show. Schedules are NCI's codes, taken here to give the interval after Q, in days (D) or hours (H), and the number of doses after X. Where survival is the endpoint, the PubChem record calls one and a half times the control and up active, and a quarter to a half above the control has no call in these data; cut-offs in other NCI protocols can differ. *1 amine or outer side, *2 acyl side, *3 side chain or, on linkers, in order; H or OH if unused. Where a SMILES comes first, the peptide text is derived from it. Bridges are numbered along the chain shown (N, C = ends). Roman numbers before positions name the chains, in order. [ ]: non-standard residue; d: D form. Actinocin(9to1) = Cc1c2oc3c(C)ccc(C(=O)[*:1])c3nc-2c(C(=O)[*:2])c(N)c1=O; NMeA = CN[CH](C)C(=O)O; Sar = CNCC(=O)O

System: B6C3F1 mice, B16 melanoma ip, median survival T/C
Assay: NCI In Vivo Anticancer Drug Screen. Data for tumor model B16 Melanoma (intraperitoneal) in B6C3F1 mice
Conditions: T/C endpoint: median survival time, higher T/C = longer survival
Experimental: The antitumor activity of compounds was measured in mice bearing transplantable tumors. Survival or tumor size were measured and the results are expressed as the measurement made in the treated group (T) divided by the measurement made in the vehicle treated control group (C). The tumor model used in this assay is B16 Melanoma (intraperitoneal) in B6C3F1 mice

[1] = dose: 400.0 mg/kg/injection, schedule: Q01DX009 (ip), vehicle: saline with Tween-80
[2] = dose: 100.0 mg/kg/injection, schedule: Q01DX009 (ip), vehicle: saline
[3] = dose: 200.0 mg/kg/injection, schedule: Q01DX009 (ip), vehicle: saline
[4] = dose: 400.0 mg/kg/injection, schedule: Q01DX009 (ip), vehicle: saline
[5] = dose: 200.0 mg/kg/injection, schedule: Q01DX009 (ip), vehicle: Klucel (hydroxypropylcellulose) (HPC)
[6] = dose: 25.0 mg/kg/injection, schedule: Q01DX009 (ip), vehicle: Klucel (hydroxypropylcellulose) (HPC)
[7] = dose: 400.0 mg/kg/injection, schedule: Q01DX009 (ip), vehicle: Klucel (hydroxypropylcellulose) (HPC)

## C=COC(=O)N(C)C
[1]
  survivor count: 2 of 10

## CNC(=O)ON(C(C)=O)C(=O)NC
[2]
  survivor count: 0 of 9
[3]
  survivor count: 0 of 9
[4]
  survivor count: 0 of 9

## CCN=C=NCCCN(C)C
dose: 25.0 mg/kg/injection, schedule: Q01DX009 (ip), vehicle: saline
  survivor count: 5 of 10
dose: 50.0 mg/kg/injection, schedule: Q01DX009 (ip), vehicle: saline
  survivor count: 4 of 10
[2]
  survivor count: 0 of 10
[3]
  survivor count: 0 of 10

## C[C@]12CC[C@@H]3c4ccc(OC(=O)Cc5ccc(N(CCCl)CCCl)cc5)cc4CC[C@H]3[C@@H]1CC[C@@H]2OC(=O)Cc1ccc(N(CCCl)CCCl)cc1
[5]
  survivor count: 10 of 10

## c1ccc(CN2CCOC2)cc1
[3]
  survivor count: 1 of 10
[4]
  survivor count: 0 of 10

## CCCCCCC(=O)CC(SCC)c1ccccc1Cl (stereo not drawn)
dose: 50.0 mg/kg/injection, schedule: Q01DX009 (ip), vehicle: saline with Tween-80
  survivor count: 10 of 10
dose: 200.0 mg/kg/injection, schedule: Q01DX009 (ip), vehicle: saline with Tween-80
  survivor count: 10 of 10

## CN(C)CCNc1ccc(NCCN(C)C)c2c1C(=O)c1ccccc1C2=O
dose: 40.0 mg/kg/injection, schedule: Q01DX009 (ip), vehicle: distilled water + Tween-80
  T/C: 139 % of control
dose: 80.0 mg/kg/injection, schedule: Q01DX009 (ip), vehicle: distilled water + Tween-80
  survivor count: 10 of 10
dose: 160.0 mg/kg/injection, schedule: Q01DX009 (ip), vehicle: distilled water + Tween-80
  survivor count: 2 of 10
dose: 320.0 mg/kg/injection, schedule: Q01DX009 (ip), vehicle: distilled water + Tween-80
  survivor count: 0 of 10

## Nc1ccc(C(=O)O)c(O)c1
dose: 4.7 mg/kg/injection, schedule: Q01DX009 (ip), vehicle: saline with Tween-80
  T/C: 132 % of control
[6]
  survivor count: 10 of 10
dose: 50.0 mg/kg/injection, schedule: Q01DX009 (ip), vehicle: Klucel (hydroxypropylcellulose) (HPC)
  survivor count: 9 of 10
[7]
  survivor count: 9 of 10
dose: 600.0 mg/kg/injection, schedule: Q01DX009 (ip), vehicle: saline with Tween-80
  survivor count: 8 of 10

## CC(C)CC(=O)NC(C(=O)NC(C(=O)NC(CC(C)C)C(O)CC(=O)NC(C)C(=O)NC(CC(C)C)C(O)CC(=O)O)C(C)C)C(C)C (stereo not drawn)
dose: 100.0 mg/kg/injection, schedule: Q01DX009 (ip), vehicle: Klucel (hydroxypropylcellulose) (HPC)
  survivor count: 10 of 10
[5]
  survivor count: 10 of 10

## O=C(Nc1cccc(Cl)c1)C1CCCC1=Nc1cccc(Cl)c1 (stereo not drawn)
[1]
  survivor count: 10 of 10

## COc1cccc2c1C(=O)c1c(O)c3c(c(O)c1C2=O)C[C@@](O)(C(C)=O)C[C@@H]3OC1CC(N(C)Cc2ccccc2)C(O)C(C)O1 (stereo partly drawn)
dose: 6.25 mg/kg/injection, schedule: Q01DX001 (ip), vehicle: distilled water + Tween-80
  T/C: 128 % of control
dose: 25.0 mg/kg/injection, schedule: Q01DX001 (ip), vehicle: distilled water + Tween-80
  T/C: 137 % of control
dose: 50.0 mg/kg/injection, schedule: Q01DX001 (ip), vehicle: distilled water + Tween-80
  survivor count: 7 of 10
dose: 100.0 mg/kg/injection, schedule: Q01DX001 (ip), vehicle: distilled water + Tween-80
  survivor count: 5 of 10

## Cc1c2oc3c(C)ccc(C(=O)NC4C(=O)NC(C(C)C)C(=O)N5CCCC5C(=O)N(C)CC(=O)N(C)C(C)C(=O)OC4C)c3nc-2c(C(=O)NC2C(=O)NC(C(C)C)C(=O)N3CCCC3C(=O)N(C)CC(=O)N(C)C(C)C(=O)OC2C)c(N)c1=O (stereo not drawn) (I: TVP[Sar][NMeA] / II: TVP[Sar][NMeA]; ester I:1-I:C, II:1-II:C; linker I:N-II:N via Actinocin(9to1); configuration not given here)
dose: 8.0 mg/kg/injection, schedule: Q04DX003 (ip), vehicle: saline + alcohol
  survivor count: 6 of 8

## CN(C)c1ccc2c(Nc3ccc(NS(C)(=O)=O)cc3)c3ccc(N(C)C)cc3nc2c1
[6]
  survivor count: 10 of 10
[5]
  survivor count: 10 of 10
[7]
  survivor count: 10 of 10
